Patent US20130324704A1
These are yes or no findings as the source states them, for the method shown. Some binding calls cover weakened binding; strength is not graded here. For part of these data: Tags and fused reporters may be left off the sequences shown.

Each binder was assayed against T1, Mouse EGFL7 (mEGFL7-CB-His) (mouse) (UniProt Q9QXT5) (assay: SPR (Biacore)).
T1 sequence: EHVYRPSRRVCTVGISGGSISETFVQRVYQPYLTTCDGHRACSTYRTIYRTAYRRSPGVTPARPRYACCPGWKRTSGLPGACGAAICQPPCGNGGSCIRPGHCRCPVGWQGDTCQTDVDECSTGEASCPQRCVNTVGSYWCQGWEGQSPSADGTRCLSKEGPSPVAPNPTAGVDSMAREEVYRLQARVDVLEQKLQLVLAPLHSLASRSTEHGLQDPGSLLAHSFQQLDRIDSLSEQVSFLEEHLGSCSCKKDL

Binder | binding
18F7.v1 (18F7-graft), IgG (antibody, V domains shown) VH: EVQLVESGGGLVQPGGSLRLSCAASGYTFIDYYMNWVRQAPGKGLEWVGDINLDNGGTHYNQKFKGRFTISRDNSKNTLYLQMNSLRAEDTAVYYCAREGVYHDYDDYAMDYWGQGTLVTVSS VL: DIQMTQSPSSLSASVGDRVTITCRTSQSLVHINGITYLHWYQQKPGKAPKLLIYRVSNRFSGVPSRFSGSGSGTDFTLTISSLQPEDFATYYCSQSTHVPLTFGQGTKVEIKR | binds
18F7.v2, IgG (antibody, name in Kabat numbering, V domains shown) VH: EVQLVESGGGLVQPGGSLRLSCAASGYTFIDYYMNWVRQAPGKGLEWVGDINLDNGGTHYNQKFKGRFTISRDKSKNTLYLQMNSLRAEDTAVYYCAREGVYHDYDDYAMDYWGQGTLVTVSS VL: DIQMTQSPSSLSASVGDRVTITCRTSQSLVHINGITYLHWYQQKPGKAPKLLIYRVSNRFSGVPSRFSGSGSGTDFTLTISSLQPEDFATYYCSQSTHVPLTFGQGTKVEIKR | binds
18F7.v3, IgG (antibody, name in Kabat numbering, V domains shown) VH: EVQLVESGGGLVQPGGSLRLSCAASGYTFIDYYMNWVRQAPGKGLEWVGDINLDNGGTHYNQKFKGRFTISRDKSKNTAYLQMNSLRAEDTAVYYCAREGVYHDYDDYAMDYWGQGTLVTVSS VL: DIQMTQSPSSLSASVGDRVTITCRTSQSLVHINGITYLHWYQQKPGKAPKLLIYRVSNRFSGVPSRFSGSGSGTDFTLTISSLQPEDFATYYCSQSTHVPLTFGQGTKVEIKR | binds
18F7.v4, IgG (antibody, name in Kabat numbering, V domains shown) VH: EVQLVESGGGLVQPGGSLRLSCAASGYTFIDYYMNWVRQAPGKGLEWVGDINLDNGGTHYNQKFKGRFTISRDKSKNTVYLQMNSLRAEDTAVYYCAREGVYHDYDDYAMDYWGQGTLVTVSS VL: DIQMTQSPSSLSASVGDRVTITCRTSQSLVHINGITYLHWYQQKPGKAPKLLIYRVSNRFSGVPSRFSGSGSGTDFTLTISSLQPEDFATYYCSQSTHVPLTFGQGTKVEIKR | binds
18F7.v5, IgG (antibody, V domains shown) VH: EVQLVESGGGLVQPGGSLRLSCAASGYTFIDYYMNWVRQAPGKGLEWVGDINLDNGGTHYNQKFKGRFTISRDKSKNTAYLQMNSLRAEDTAVYYCAREGVYHDYDDYAMDYWGQGTLVTVSS VL: DIQMTQSPSSLSASVGDRVTITCRTSQSLVHINGITYLHWYQQKPGKAPKLLIYRVSNRGSGVPSRFSGSGSGTDFTLTISSLQPEDFATYYCSQSTHVPLTFGQGTKVEIK | binds
18F7.v6, IgG (antibody, V domains shown) VH: EVQLVESGGGLVQPGGSLRLSCAASGYTFIDYYMNWVRQAPGKGLEWVGDINLDNGGTHYNQKFKGRFTISRDKSKNTAYLQMNSLRAEDTAVYYCAREGVYHDYDDYAMDYWGQGTLVTVSS VL: DIQMTQSPSSLSASVGDRVTITCRTSQSLVHINGITYLHWYQQKPGKAPKLLIYRVSNRFSGVPSRFSGSGSGTDFTLTISSLQPEDFATYYCGQSTHVPLTFGQGTKVEIKR | binds
18F7.v7, IgG (antibody, V domains shown) VH: EVQLVESGGGLVQPGGSLRLSCAASGYTFIDYYMNWVRQAPGKGLEWVGDINLDNGGTHYNQKFKGRFTISRDKSKNTAYLQMNSLRAEDTAVYYCAREGVYHDYDDYAMDYWGQGTLVTVSS VL: DIQMTQSPSSLSASVGDRVTITCRTSQSLVHINGITYLHWYQQKPGKAPKLLIYRVSNRFSGVPSRFSGSGSGTDFTLTISSLQPEDFATYYCAQSTHVPLTFGQGTKVEIK | binds
18F7.v8, IgG (antibody, V domains shown) VH: EVQLVESGGGLVQPGGSLRLSCAASGYTFIDYYMNWVRQAPGKGLEWVGDINLDNGGTHYNQKFKGRFTISRDKSKNTAYLQMNSLRAEDTAVYYCAREGVYHDYDDYAMDYWGQGTLVTVSS VL: DIQMTQSPSSLSASVGDRVTITCRTSQSLVHINGITYLHWYQQKPGKAPKLLIYRVSNRFSGVPSRFSGSGSGTDFTLTISSLQPEDFATYYCVQSTHVPLTFGQGTKVEIK | binds
18F7.v9, IgG (antibody, V domains shown) VH: EVQLVESGGGLVQPGGSLRLSCAASGYTFIDKYMNWVRQAPGKGLEWVGDINLDNGGTHYNQKFKGRFTISRDKSKNTAYLQMNSLRAEDTAVYYCAREGVYHDYDDYAMDYWGQGTLVTVSS VL: DIQMTQSPSSLSASVGDRVTITCRTSQSLVHINGITYLHWYQQKPGKAPKLLIYRVSNRFSGVPSRFSGSGSGTDFTLTISSLQPEDFATYYCSQSTHVPLTFGQGTKVEIK | binds
18F7.v10, IgG (antibody, V domains shown) VH: EVQLVESGGGLVQPGGSLRLSCAASGYTFIDYYMNWVRQAPGKGLEWVGDINLDNGGTHYNQKFKGRFTISRDKSKNTAYLQMNSLRAEDTAVYYCAREGVYHPYDDYAMDYWGQGTLVTVSS VL: DIQMTQSPSSLSASVGDRVTITCRTSQSLVHINGITYLHWYQQKPGKAPKLLIYRVSNRFSGVPSRFSGSGSGTDFTLTISSLQPEDFATYYCSQSTHVPLTFGQGTKVEIK | binds

The binders below were run against T2, Full length human EGFL7 (human) (UniProt Q9UHF1) (assay: phage binding to antigen immobilized on microtiter plate).
T2 sequence: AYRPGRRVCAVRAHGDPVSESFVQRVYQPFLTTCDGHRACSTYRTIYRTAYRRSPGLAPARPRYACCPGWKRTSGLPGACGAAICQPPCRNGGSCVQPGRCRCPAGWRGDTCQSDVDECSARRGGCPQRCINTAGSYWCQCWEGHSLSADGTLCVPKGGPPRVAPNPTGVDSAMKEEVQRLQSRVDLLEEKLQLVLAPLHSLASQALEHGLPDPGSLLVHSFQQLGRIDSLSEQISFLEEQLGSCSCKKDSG

Binder | binding
4F11.v1 Fab displayed on phage (Fab, V domains shown) VH: EVQLVESGGGLVQPGGSLRLSCAASGHTFTTYGMSWVRQAPGKGLEWVGWINTHSGVPTYADDFKGRFTISRDNSKNTLYLQMNSLRAEDTAVYYCARLGSSAVDYWGQGTLVTVSS VL: DIQMTQSPSSLSASVGDRVTITCKASQSVDYDGDSYMSWYQQKPGKAPKLLIYGASNLESGVPSRFSGSGSGTDFTLTISSLQPEDFATYYCQQNNEDPYTFGQGTKVEIKR | binds
18F7-graft Fab displayed on phage (Fab, V domains shown) VH: EVQLVESGGGLVQPGGSLRLSCAASGYTFIDYYMNWVRQAPGKGLEWVGDINLDNGGTHYNQKFKGRFTISRDNSKNTLYLQMNSLRAEDTAVYYCAREGVYHDYDDYAMDYWGQGTLVTVSS VL: DIQMTQSPSSLSASVGDRVTITCRTSQSLVHINGITYLHWYQQKPGKAPKLLIYRVSNRFSGVPSRFSGSGSGTDFTLTISSLQPEDFATYYCSQSTHVPLTFGQGTKVEIKR | binds
